At least one peptide structure holds a part that was inferred or is arguable (an end, a ring closure or a residue). Square brackets hold non-standard residues; d marks the D form. Peptide text beside a SMILES is read from it.
Assay: adrenocorticotropic activity of the purified peptides (no method described)
Settings: peptide purified by carboxymethylcellulose ion-exchange chromatography and Sephadex gel filtration; result in words only

Structure (SMILES) | adrenocorticotropic activity
CSCC[C@H](NC(=O)[C@H](CO)NC(=O)[C@H](Cc1ccc(O)cc1)NC(=O)[C@@H](C)N)C(=O)N[C@@H](CCC(=O)O)C(=O)N[C@@H](Cc1c[nH]cn1)C(=O)N[C@@H](Cc1ccccc1)C(=O)N[C@@H](CCCNC(=N)N)C(=O)N[C@@H](Cc1c[nH]c2ccccc12)C(=O)NCC(=O)N[C@@H](CCCCN)C(=O)N1CCC[C@H]1C(=O)N[C@H](C(=O)NCC(=O)N[C@@H](CCCCN)C(=O)N[C@@H](CCCCN)C(=O)N[C@@H](CCCNC(=N)N)C(=O)N[C@@H](CCCNC(=N)N)C(=O)N[C@@H](CC(N)=O)C(=O)O)C(C)C [[D-ala^1 ,asn^19]-ACTH-(1-19)] (H-[dA]YSMEHFRWGKPVGKKRRN-OH) | found to have adrenocorticotropic activity
CSCC[C@H](NC(=O)[C@H](CO)NC(=O)[C@H](Cc1ccc(O)cc1)NC(=O)[C@@H](C)N)C(=O)N[C@@H](CCC(=O)O)C(=O)N[C@@H](Cc1c[nH]cn1)C(=O)N[C@@H](Cc1ccccc1)C(=O)N[C@@H](CCCNC(=N)N)C(=O)N[C@@H](Cc1c[nH]c2ccccc12)C(=O)NCC(=O)N[C@@H](CCCCN)C(=O)N1CCC[C@H]1C(=O)N[C@H](C(=O)NCC(=O)N[C@@H](CCCCN)C(=O)N[C@@H](CCCCN)C(=O)N[C@@H](CCCNC(=N)N)C(=O)N[C@@H](CCCNC(=N)N)C(=O)N1CCC[C@H]1C(=O)N[C@H](C(=O)N[C@@H](CCCCN)C(=O)N[C@H](C(=O)N[C@@H](CC(N)=O)C(=O)O)C(C)C)C(C)C)C(C)C [[D-ala^1 ,asn^23]-ACTH-(1-23)] (H-[dA]YSMEHFRWGKPVGKKRRPVKVN-OH) | found to have adrenocorticotropic activity

Reference: patent US4130514A, “Synthesis of peptides” (Armour Pharmaceutical Company, priority 1978, dated 1978)
